From patent US11129830B2, “PAC-1 combination therapy” (The Board of Trustees of the University of Illinois, priority 2015, dated 2021)
For some assays here: For at least one compound, name, drawing or mass did not settle the structure. Some entries share one result that the patent states for a list of compounds.

Assays:
[1] = test system: caspase-3/-7 activity in A375 and UACC-62 cells; details: 24 h; PAC-1 12 μM, vemurafenib 10 μM, trametinib 100 nM
[2] = test system: cell lines with the V600EBRAF mutation; test: Annexin V/PI flow cytometry apoptosis, V600EBRAF cell lines; type: cell-based; details: 24 h incubation; vemurafenib 10 μM, PAC-1 12 μM; Annexin V-FITC/PI

SMILES	caspase-3/-7 activity [1]	apoptotic death as single agents [2] [%]
CC(=O)Nc1cccc(-n2c(=O)n(C3CC3)c(=O)c3c(Nc4ccc(I)cc4F)n(C)c(=O)c(C)c32)c1 [trametinib]	little effect	
C=CCc1cccc(/C=N/NC(=O)CN2CCN(Cc3ccccc3)CC2)c1O [PAC-1, 2-(4-benzylpiperazin-1-yl)-N-[(2-hydroxy-3-prop-2-enyl-phenyl)methylideneamino]acetamide]		≤ 10
